For assay [1], the target named is PINK1-GFP (UniProt Q9BXM7). In words: affinity purification with mass spectrometry; GFP-IP (μMACS Epitope Tag Protein Isolation kit) of lysates of HEK293 cells expressing GFP or PINK1-GFP; gel bands analysed by label-free LC-MS.
Assay [2] concerns the target PINK1-GFP (UniProt Q9BXM7). The description is as above. This is another data set of the same source.

Amino acid sequences for entries named in this document (tags omitted). A change or cut given only in a name is not applied to a line headed by its entry. Residues count along the entry.
UniProt Q9BXM7: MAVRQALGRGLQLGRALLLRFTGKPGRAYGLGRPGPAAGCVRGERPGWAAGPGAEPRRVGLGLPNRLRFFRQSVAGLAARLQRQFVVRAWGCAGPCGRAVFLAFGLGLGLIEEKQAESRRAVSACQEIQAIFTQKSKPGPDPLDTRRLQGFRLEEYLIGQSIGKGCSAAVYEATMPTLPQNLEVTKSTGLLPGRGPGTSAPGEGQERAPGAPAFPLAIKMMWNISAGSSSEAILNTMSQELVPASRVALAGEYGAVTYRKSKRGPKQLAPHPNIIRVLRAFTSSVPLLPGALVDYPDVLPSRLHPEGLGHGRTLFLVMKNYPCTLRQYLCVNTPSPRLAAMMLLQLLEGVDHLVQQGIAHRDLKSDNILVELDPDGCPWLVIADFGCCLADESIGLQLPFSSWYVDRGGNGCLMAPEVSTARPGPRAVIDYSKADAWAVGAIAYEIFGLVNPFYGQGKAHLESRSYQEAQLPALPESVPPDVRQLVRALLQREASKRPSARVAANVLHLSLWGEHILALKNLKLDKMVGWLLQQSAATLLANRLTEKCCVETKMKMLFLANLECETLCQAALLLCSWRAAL
UniProt Q3ZCQ8, residues 45-353: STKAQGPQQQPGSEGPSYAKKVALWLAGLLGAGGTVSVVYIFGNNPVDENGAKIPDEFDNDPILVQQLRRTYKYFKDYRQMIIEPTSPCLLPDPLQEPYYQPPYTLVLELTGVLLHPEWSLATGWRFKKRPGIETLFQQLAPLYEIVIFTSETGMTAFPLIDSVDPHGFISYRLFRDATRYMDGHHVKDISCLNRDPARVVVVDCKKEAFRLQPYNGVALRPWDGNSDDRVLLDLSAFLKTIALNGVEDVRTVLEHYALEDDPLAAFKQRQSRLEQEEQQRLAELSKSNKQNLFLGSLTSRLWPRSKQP

The values that follow come from publication PMC6377406.

Read-outs that look alike come from different tables or passages of the source. These are yes or no findings as the source states them, for the method shown. Binding seen in cells or lysates may run through a third protein. A yes stands for co-enrichment or nearness to the bait. Other partners may have been found.

Regarding “Translocase of inner mitochondrial membrane 50 homolog (from UniProt Q3ZCQ8 45-353)”, the binding result in the assay with PINK1-GFP [1] is on record as “binds”. Same read-out and setting: with “valosin-containing protein (VCP), endogenous in HEK293 cells (from UniProt P55072 1-806)” the entry was “binds”.

B1: Translocase of outer mitochondrial membrane 40 homolog (protein, UniProt O96008 1-361)
chain: MGNVLAASSPPAGPPPPPAPALVGLPPPPPSPPGFTLPPLGGSLGAGTSTSRSSERTPGAATASASGAAEDGACGCLPNPGTFEECHRKCKELFPIQMEGVKLTVNKGLSNHFQVNHTVALSTIGESNYHFGVTYVGTKQLSPTEAFPVLVGDMDNSGSLNAQVIHQLGPGLRSKMAIQTQQSKFVNWQVDGEYRGSDFTAAVTLGNPDVLVGSGILVAHYLQSITPCLALGGELVYHRRPGEEGTVMSLAGKYTLNNWLATVTLGQAGMHATYYHKASDQLQVGVEFEASTRMQDTSVSFGYQLDLPKANLLFKGSVDSNWIVGATLEKKLPPLPLTLALGAFLNHRKNKFQCGFGLTIG
In the case of B1, the binding result in the assay with PINK1-GFP [2] is “binds”.
